{
  "sequences": {"note": "Sequences of proteins named here, by UniProt entry; tags and fusion partners are left off.", "UniProt Q92847, whole entry": "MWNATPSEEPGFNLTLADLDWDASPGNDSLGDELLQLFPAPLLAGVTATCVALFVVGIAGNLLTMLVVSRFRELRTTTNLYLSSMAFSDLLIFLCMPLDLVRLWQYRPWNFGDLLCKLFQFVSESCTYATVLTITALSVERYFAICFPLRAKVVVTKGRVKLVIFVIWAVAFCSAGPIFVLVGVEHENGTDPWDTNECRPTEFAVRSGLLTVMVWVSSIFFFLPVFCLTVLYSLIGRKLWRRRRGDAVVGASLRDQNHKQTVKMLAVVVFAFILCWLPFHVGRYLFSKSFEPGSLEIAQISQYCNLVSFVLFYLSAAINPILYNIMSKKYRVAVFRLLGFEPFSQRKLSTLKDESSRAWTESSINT"},
  "source": "patent US11186571B2",
  "about": "“Quinazolinone derivatives useful for imaging” (LONDON HEALTH SCIENCES CENTRE RESEARCH INC., priority 2017, dated 2021)",
  "target": "T1, GHS-R1a (Homo sapiens, UniProt Q92847)",
  "T1 construct": "expressed in transfected cells; host or cells: HEK293",
  "assay": "Radioligand binding assay, displacement of [125I-His9]ghrelin(1-28)",
  "description": "The affinity for GHS-R1a was determined using a radioligand binding assay. […] The resulting suspension was incubated for 20 min with shaking (550 rpm). […] All binding assays were performed in triplicate.",
  "note": "At least one structure is not confirmed: it was looked up by name or label, or the drawing left a doubt.",
  "data": [
    {"smiles": "Cc1ccccc1-c1nc2ccc(C(=O)c3ccc(F)cc3)cc2c(=O)n1C[C@H]1CCCNC1", "note": "[Compound 19, (S)-6-(4-fluorobenzoyl)-3-(piperidin-3-ylmethyl)-2-(o-tolyl)quinazolin-4(3H)-one]", "values": [
      {"measurement": "binding affinity with GHS-R1a, stated in words", "result": "equivalent binding affinity to natural ghrelin"}
    ]}
  ]
}
